Measurements as given in paper PMC5678078 (2017).
Results are given in words; binding and its absence hold for the method and conditions named. In cells and extracts the contact can be indirect. Some results given as binding are weak or reduced against the parent protein; the word gives no strength. Sequences can lack the tags named with a protein.

T1: HAI-2 (hepatocyte growth factor activator inhibitor-2) with c-Myc and His tags, overexpressed in N2 cells (human), O43291
T1 chain: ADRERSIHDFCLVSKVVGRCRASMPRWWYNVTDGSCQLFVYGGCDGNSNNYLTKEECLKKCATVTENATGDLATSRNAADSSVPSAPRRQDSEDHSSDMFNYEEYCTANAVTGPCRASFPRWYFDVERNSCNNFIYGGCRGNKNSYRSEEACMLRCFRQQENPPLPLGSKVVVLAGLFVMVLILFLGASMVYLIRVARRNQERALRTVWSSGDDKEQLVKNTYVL

T2: matriptase with a V5 tag, overexpressed in HEK293T cells (human), Q9Y5Y6
T2 chain: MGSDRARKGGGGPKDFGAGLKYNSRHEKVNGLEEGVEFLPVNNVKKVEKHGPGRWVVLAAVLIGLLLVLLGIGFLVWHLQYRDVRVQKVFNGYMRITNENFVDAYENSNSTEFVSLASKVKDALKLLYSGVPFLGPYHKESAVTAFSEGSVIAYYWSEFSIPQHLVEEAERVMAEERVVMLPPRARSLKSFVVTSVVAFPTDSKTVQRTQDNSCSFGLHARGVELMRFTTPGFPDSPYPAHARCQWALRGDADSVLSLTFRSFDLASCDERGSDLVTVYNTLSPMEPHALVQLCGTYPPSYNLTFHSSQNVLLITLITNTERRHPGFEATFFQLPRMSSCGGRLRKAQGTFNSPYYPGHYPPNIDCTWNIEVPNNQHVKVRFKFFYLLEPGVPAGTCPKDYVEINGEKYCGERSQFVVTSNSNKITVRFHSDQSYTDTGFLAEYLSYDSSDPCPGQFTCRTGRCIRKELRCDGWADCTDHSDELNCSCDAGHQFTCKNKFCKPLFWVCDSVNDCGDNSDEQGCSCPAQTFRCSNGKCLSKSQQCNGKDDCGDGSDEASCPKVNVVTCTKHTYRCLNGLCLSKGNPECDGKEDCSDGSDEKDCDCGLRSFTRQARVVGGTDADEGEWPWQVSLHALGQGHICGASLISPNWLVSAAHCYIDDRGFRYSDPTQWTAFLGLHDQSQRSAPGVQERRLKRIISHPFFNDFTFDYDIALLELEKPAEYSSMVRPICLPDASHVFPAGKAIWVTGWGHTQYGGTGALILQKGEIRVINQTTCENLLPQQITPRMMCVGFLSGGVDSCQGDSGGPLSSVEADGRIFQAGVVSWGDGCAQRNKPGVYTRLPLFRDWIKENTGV


What was measured:
[1] = target: T1, HAI-2 (hepatocyte growth factor …); assay: co-IP; HAI-2 (c-Myc tag) immunoprecipitated with anti-c-Myc mAb and protein G magnetic beads from lysates of HAI-2-overexpressing N2 cells (0.5% NP-40, 150 mM NaCl, 50 mM Tris pH 7.0); mouse IgG as control; blot with anti-matriptase and anti-HAI-2 pAbs; settings: remark: other sources report otherwise
[2] = target: T2, matriptase with a V5 tag, overexpressed …; assay: co-IP; matriptase (V5 tag) immunoprecipitated with anti-V5 mAb and protein G magnetic beads from lysates of HEK293T cells transiently transfected with matriptase and HAI-2 plasmids (0.5% NP-40, 150 mM NaCl, 50 mM Tris pH 7.0); blot with anti-V5 mAb and anti-HAI-2 pAb; settings: remark: other sources report otherwise

binding [1]	binding [2]	Binder
binds	–	matriptase, endogenous in N2 cells, Q9Y5Y6 1-855 (protein) MGSDRARKGGGGPKDFGAGLKYNSRHEKVNGLEEGVEFLPVNNVKKVEKHGPGRWVVLAAVLIGLLLVLLGIGFLVWHLQYRDVRVQKVFNGYMRITNENFVDAYENSNSTEFVSLASKVKDALKLLYSGVPFLGPYHKESAVTAFSEGSVIAYYWSEFSIPQHLVEEAERVMAEERVVMLPPRARSLKSFVVTSVVAFPTDSKTVQRTQDNSCSFGLHARGVELMRFTTPGFPDSPYPAHARCQWALRGDADSVLSLTFRSFDLASCDERGSDLVTVYNTLSPMEPHALVQLCGTYPPSYNLTFHSSQNVLLITLITNTERRHPGFEATFFQLPRMSSCGGRLRKAQGTFNSPYYPGHYPPNIDCTWNIEVPNNQHVKVRFKFFYLLEPGVPAGTCPKDYVEINGEKYCGERSQFVVTSNSNKITVRFHSDQSYTDTGFLAEYLSYDSSDPCPGQFTCRTGRCIRKELRCDGWADCTDHSDELNCSCDAGHQFTCKNKFCKPLFWVCDSVNDCGDNSDEQGCSCPAQTFRCSNGKCLSKSQQCNGKDDCGDGSDEASCPKVNVVTCTKHTYRCLNGLCLSKGNPECDGKEDCSDGSDEKDCDCGLRSFTRQARVVGGTDADEGEWPWQVSLHALGQGHICGASLISPNWLVSAAHCYIDDRGFRYSDPTQWTAFLGLHDQSQRSAPGVQERRLKRIISHPFFNDFTFDYDIALLELEKPAEYSSMVRPICLPDASHVFPAGKAIWVTGWGHTQYGGTGALILQKGEIRVINQTTCENLLPQQITPRMMCVGFLSGGVDSCQGDSGGPLSSVEADGRIFQAGVVSWGDGCAQRNKPGVYTRLPLFRDWIKENTGV
–	binds	HAI-2 overexpressed in HEK293T cells, O43291 28-252 (protein) ADRERSIHDFCLVSKVVGRCRASMPRWWYNVTDGSCQLFVYGGCDGNSNNYLTKEECLKKCATVTENATGDLATSRNAADSSVPSAPRRQDSEDHSSDMFNYEEYCTANAVTGPCRASFPRWYFDVERNSCNNFIYGGCRGNKNSYRSEEACMLRCFRQQENPPLPLGSKVVVLAGLFVMVLILFLGASMVYLIRVARRNQERALRTVWSSGDDKEQLVKNTYVL
